In US20180362485A1, “N-HYDROXYFORMAMIDE COMPOUNDS AND COMPOSITIONS COMPRISING THEM FOR USE AS BMP l, TLL1 AND/OR TLL2 INHIBITORS” (GlaxoSmithKline Intellectual Property (No. 2) Limited, priority 2015, published 2018):
Some of these results come from one statement about several compounds together.

Assay: Human plasma stability assay
Details: 37° C., within 24 hours

| Compound | conversion to a BMP1, TLL1 and/or TLL2 inhibitor in human plasma |
| --- | --- |
| CCCCC[C@@H](C(=O)NCNC(=O)c1ccc(-c2ccc(C(=O)N[C@@H](CC(=O)O)C(=O)O)c(OCC(=O)O)c2)o1)[C@@H](CC)N(C=O)OC(=O)c1ccc(OC)cc1C(C)C [Example 52, (S)-2-(2-(carboxymethoxy)-4-(5-((((R)-2-((R)-1-(N-((2-isopropyl-4-methoxybenzoyl)oxy) formamido)propyl)heptanamido)methyl)carbamoyl)furan-2-yl)benzamido) succinic acid] | convert to a BMP1, TLL1 and/or TLL2 inhibitor within 24 hours |
| CCCCC[C@@H](C(=O)NCNC(=O)c1ccc(-c2cc(OCC)cc(P(=O)(O)O)c2)o1)[C@@H](CC)N(C=O)OC(=O)c1c(C)cccc1F [Example 46, (3-ethoxy-5-(5-((((R)-2-((R)-1-(N-((2-fluoro-6-methylbenzoyl)oxy) formamido)propyl)heptanamido)methyl)carbamoyl)furan-2-yl)phenyl)phosphonic acid] | convert to a BMP1, TLL1 and/or TLL2 inhibitor within 24 hours |
| CCCCC[C@@H](C(=O)NCNC(=O)c1ccc(-c2ccc(C(=O)N[C@@H](CC(=O)O)C(=O)O)c(OCC)c2)o1)[C@@H](CC)N(C=O)OC(=O)c1ccc(O)cc1 [Example 121, (S)-2-(2-ethoxy-4-(5-((((R)-2-((R)-1-(N-((4-hydroxybenzoyl)oxy)formamido)propyl)heptanamido)methyl)carbamoyl)furan-2-yl)benzamido) succinic acid] | convert to a BMP1, TLL1 and/or TLL2 inhibitor within 24 hours |
| CCCCC[C@@H](C(=O)NCNC(=O)c1ccc(-c2ccc(C(=O)N[C@@H](CC(=O)O)C(=O)O)c(OCC(=O)O)c2)o1)[C@@H](CC)N(C=O)OC(=O)c1ccc(F)cc1C(C)C [Example 53, (S)-2-(2-(carboxymethoxy)-4-(5-((((R)-2-((R)-1-(N-((4-fluoro-2-isopropylbenzoyl)oxy) formamido)propyl)heptanamido)methyl)carbamoyl)furan-2-yl)benzamido)succinic acid] | convert to a BMP1, TLL1 and/or TLL2 inhibitor within 24 hours |
| CCCCC[C@@H](C(=O)NCNC(=O)c1ccc(-c2ccc(C(=O)NCP(=O)(O)O)c(OCC)c2)o1)[C@@H](CC)N(C=O)OC(=O)c1ccc(OC)cc1 [Example 132, ((2-ethoxy-4-(5-((((R)-2-((R)-1-(N-((4-methoxybenzoyl)oxy)formamido)propyl)heptanamido)methyl)carbamoyl)furan-2-yl)benzamido)methyl) phosphonic acid] | convert to a BMP1, TLL1 and/or TLL2 inhibitor within 24 hours |
| CCCCC[C@@H](C(=O)NCNC(=O)c1ccc(-c2ccc(C(=O)N[C@@H](CC(=O)O)C(=O)O)c(OCC)c2)o1)[C@@H](CC)N(C=O)OC(=O)c1ccccc1C [Example 93, (S)-2-(2-ethoxy-4-(5-((((R)-2-((R)-1-(N-((2-methylbenzoyl)oxy) formamido)propyl)heptanamido)methyl)carbamoyl)furan-2-yl)benzamido) succinic acid] | convert to a BMP1, TLL1 and/or TLL2 inhibitor within 24 hours |
| CCCCC[C@@H](C(=O)NCNC(=O)c1ccc(-c2ccc(C(=O)OCCN3CCOCC3)cc2)o1)[C@@H](CC)N(O)C=O [Example 103, 2-morpholinoethyl 4-(5-((((R)-2-((R)-1-(N-hydroxyformamido)propyl)heptanamido)methyl)carbamoyl)furan-2-yl)benzoate] | convert to a BMP1, TLL1 and/or TLL2 inhibitor within 24 hours |
| CCCCC[C@@H](C(=O)NCNC(=O)c1ccc(-c2ccc(C(=O)N[C@@H](CC(=O)O)C(=O)O)c(OCC(=O)O)c2)o1)[C@@H](CC)N(C=O)OC(=O)NC [Example 21, (S)-2-(2-(carboxymethoxy)-4-(5-(((6R,7R)-6-ethyl-5-formyl-3,8-dioxo-7-pentyl-4-oxa-2,5,9-triazadecan-10-yl)carbamoyl)furan-2-yl)benzamido) succinic acid] | convert to a BMP1, TLL1 and/or TLL2 inhibitor within 24 hours |
| CCCCC[C@@H](C(=O)NCNC(=O)c1ccc(-c2cc(OCC)cc(P(=O)(O)O)c2)o1)[C@@H](CC)N(C=O)OC(=O)c1ccc(OC)cc1C(C)C [Example 89, (3-ethoxy-5-(5-((((R)-2-((R)-1-(N-((2-isopropyl-4-methoxybenzoyl)oxy) formamido)propyl)heptanamido)methyl)carbamoyl)furan-2-yl)phenyl)phosphonic acid] | convert to a BMP1, TLL1 and/or TLL2 inhibitor within 24 hours |
| CCCCC[C@@H](C(=O)NCNC(=O)c1ccc(-c2ccc(C(=O)N[C@@H](CC(=O)O)C(=O)OCc3oc(=O)oc3C)c(OCC)c2)o1)[C@@H](CC)N(O)C=O [Example 204, (S)-3-(2-ethoxy-4-(5-((((R)-2-((R)-1-(N-hydroxyformamido)propyl)heptanamido)methyl)carbamoyl)furan-2-yl)benzamido)-4-((5-methyl-2-oxo-1,3-dioxol-4-yl)methoxy)-4-oxobutanoic acid] | convert to a BMP1, TLL1 and/or TLL2 inhibitor within 24 hours |
| CCCCC[C@@H](C(=O)NCNC(=O)c1ccc(-c2ccc(C(=O)N[C@@H](CC(=O)O)C(=O)O)c(OCC)c2)o1)[C@@H](CC)N(C=O)OC(=O)c1ccc(OC)cc1F [Example 122, (S)-2-(2-ethoxy-4-(5-((((R)-2-((R)-1-(N-((2-fluoro-4-methoxybenzoyl)oxy) formamido)propyl)heptanamido)methyl)carbamoyl)furan-2-yl)benzamido) succinic acid] | convert to a BMP1, TLL1 and/or TLL2 inhibitor within 24 hours |
| CCCCC[C@@H](C(=O)NCNC(=O)c1ccc(-c2cc(OCC)cc(P(=O)(O)O)c2)o1)[C@@H](CC)N(C=O)OC(=O)c1ccc(N2CCOCC2)cc1 [Example 57, (3-ethoxy-5-(5-((((R)-2-((R)-1-(N-((4-morpholinobenzoyl)oxy)formamido)propyl)heptanamido)methyl)carbamoyl)furan-2-yl)phenyl)phosphonic acid] | convert to a BMP1, TLL1 and/or TLL2 inhibitor within 24 hours |
| CCCCC[C@@H](C(=O)NCNC(=O)c1ccc(-c2ccc(C(=O)N[C@@H](CC(=O)O)C(=O)O)c(OCC)c2)o1)[C@@H](CC)N(C=O)OC(=O)c1cccc(-n2cccc2)c1 [Example 128, (S)-2-(4-(5-((((R)-2-((R)-1-(N-((3-(1H-pyrrol-1-yl)benzoyl)oxy) formamido)propyl)heptanamido)methyl)carbamoyl)furan-2-yl)-2-ethoxybenzamido) succinic acid] | convert to a BMP1, TLL1 and/or TLL2 inhibitor within 24 hours |
| CCCCC[C@@H](C(=O)NCNC(=O)c1ccc(-c2cc(OCC)cc(P(=O)(O)O)c2)o1)[C@@H](CC)N(C=O)OC(=O)OC(C)(C)C [Example 82, (3-ethoxy-5-(5-(((4R,5R)-5-ethyl-6-formyl-10,10-dimethyl-3,8-dioxo-4-pentyl-7,9-dioxa-2,6-diazaundecyl)carbamoyl)furan-2-yl)phenyl) phosphonic acid] | convert to a BMP1, TLL1 and/or TLL2 inhibitor within 24 hours |
| CCCCC[C@@H](C(=O)NCNC(=O)c1ccc(-c2ccc(C(=O)N[C@@H](CC(=O)O)C(=O)O)c(OCC)c2)o1)[C@@H](CC)N(C=O)OC(=O)c1cccc(NC)c1 [Example 602, (S)-2-(2-ethoxy-4-(5-((((R)-2-((R)-1-(N-((3-(methylamino)benzoyl)oxy) formamido)propyl)heptanamido)methyl)carbamoyl)furan-2-yl)benzamido) succinic acid] | convert to a BMP1, TLL1 and/or TLL2 inhibitor within 24 hours |
| CCCCC[C@@H](C(=O)NCNC(=O)c1ccc(-c2ccc(C(=O)N[C@@H](CC(=O)O)C(=O)O)c(OCC)c2)o1)[C@@H](CC)N(C=O)OC(=O)c1ccc(OC)cc1Br [Example 205, (S)-2-(4-(5-((((R)-2-((R)-1-(N-((2-bromo-4-methoxybenzoyl)oxy)formamido)propyl)heptanamido)methyl)carbamoyl)furan-2-yl)-2-ethoxybenzamido) succinic acid] | convert to a BMP1, TLL1 and/or TLL2 inhibitor within 24 hours |
| CCCCC[C@@H](C(=O)NCNC(=O)c1ccc(-c2ccc(C(=O)N[C@@H](CC(=O)O)C(=O)O)c(OCC(=O)O)c2)o1)[C@@H](CC)N(C=O)OC(=O)c1ccccc1C(C)C [Example 28, (S)-2-(2-(carboxymethoxy)-4-(5-((((R)-2-((R)-1-(N-((2-isopropylbenzoyl)oxy) formamido)propyl)heptanamido)methyl)carbamoyl)furan-2-yl)benzamido) succinic acid] | convert to a BMP1, TLL1 and/or TLL2 inhibitor within 24 hours |
| CCCCC[C@@H](C(=O)NCNC(=O)c1ccc(-c2cc(OCC)cc(P(=O)(O)O)c2)o1)[C@@H](CC)N(C=O)OC(=O)c1ccc2c(c1)OCCO2 [Example 81, (3-(5-((((R)-2-((R)-1-(N-((2,3-dihydrobenzo[b][1,4]dioxine-6-carbonyl)oxy) formamido)propyl)heptanamido)methyl)carbamoyl)furan-2-yl)-5-ethoxyphenyl) phosphonic acid] | convert to a BMP1, TLL1 and/or TLL2 inhibitor within 24 hours |
| CCCCC[C@@H](C(=O)NCNC(=O)c1ccc(-c2ccc(C(=O)N[C@@H](CC(=O)O)C(=O)O)c(OCC(=O)O)c2)o1)[C@@H](CC)N(C=O)OC(=O)c1c(C)cccc1F [Example 38, (S)-2-(2-(carboxymethoxy)-4-(5-((((R)-2-((R)-1-(N-((2-fluoro-6-methylbenzoyl)oxy) formamido)propyl)heptanamido)methyl)carbamoyl)furan-2-yl)benzamido) succinic acid] | convert to a BMP1, TLL1 and/or TLL2 inhibitor within 24 hours |
| CCCCC[C@@H](C(=O)NCNC(=O)c1ccc(-c2cc(OCC)cc(P(=O)(OCOC(=O)OC(C)C)OCOC(=O)OC(C)C)c2)o1)[C@@H](CC)N(O)C=O [Example 107, (((3-ethoxy-5-(5-((((R)-2-((R)-1-(N-hydroxyformamido)propyl)heptanamido)methyl)carbamoyl)furan-2-yl)phenyl)phosphoryl)bis(oxy))bis (methylene) diisopropyl dicarbonate] | convert to a BMP1, TLL1 and/or TLL2 inhibitor within 24 hours |
